Data published in PubChem BioAssay AID2685 (National Center for Advancing Translational Sciences (NCATS), 2010).
The list shows a part of the results. Further columns of the screen follow, without active or inactive calls. The list favours compounds with an active or inconclusive main result. The note in brackets gives the kind of curve behind each potency; many fits are weak.

Test: qHTS Assay for Lipid Storage Modulators in Drosophila S3 Cells;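 as to cell number change: cells counted by Cell Tracker Red CMTPX staining in the red channel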
Conditions: BODIPY lipid droplet fluorescence, 18-24 h; for cell number change: measured here: cell count max response, cells fed with added oleic acid
Summary of the method: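 Drosophila S3 cells got compounds at several concentrations plus oleic acid (400 uM solution). Laser-scanning cytometry with 488 nm excitation read lipid droplets at 500-530 nm and cells at 575-640 nm. Percent activity was relative to 20 uM Triacsin C.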

[1] = measured here: lipid fluorescence (Fed channel) AC50, cells fed with added oleic acid
[2] = measured here: cell number channel AC50, cells fed with added oleic acid

| Structure (SMILES) | cell number change [%] | AC50 [1] | AC50 [2] |
| --- | --- | --- | --- |
| CCC1CCCCN1CCNC(=O)C1CCCN(S(=O)(=O)c2cccc3nsnc23)C1 (stereo not given) | -8.94 | 29.1 µM [rising, single point] | – |
| Cc1n[nH]c(=O)c2c1nnn2Cc1ccccc1Cl | -4.23 | 5.8 µM [falling, single point] | – |
| CCOc1ccc(N2CC(C(=O)NCc3ccccc3)CC2=O)cc1 (stereo not given) | -30.5 | 29.1 µM [falling, single point] | 29.1 µM [falling, single point] |
| Cc1c(C#N)c2ccccc2n1CC(=O)NCC1CCCO1 (stereo not given) | 11.1 | 6.51 µM [rising, single point] | – |
| COc1cc2c(cc1OC)C(COc1ccc([N+](=O)[O-])cc1)NCC2 (stereo not given) | 20.8 | – | – |
| COC(=O)c1sccc1-c1ccc(/C=N/OCc2c(Cl)cccc2Cl)o1 | 28.2 | 29.1 µM [rising, single point] | 1.64 µM [rising, full curve, poor fit] |
| O=C1NCCN(Cc2ccc(-c3ccccc3)cc2)C1CC(=O)N1CCN(CCO)CC1 (stereo not given) | 12.1 | 9.2 µM [rising, partial curve, poor fit] | – |
| C=CCSc1nc(N)c(C#N)c(-c2ccc(C)cc2)c1C#N | – | 0.92 µM [rising, full curve] | 1.3 µM [rising, full curve] |
| CC1CC(C)CN(CC(=O)NCCc2ccc(S(N)(=O)=O)cc2)C1 (stereo not given) | -7.82 | 0.082 µM [falling, partial curve, poor fit] | – |
| Cc1ccc(CCN2CC(C(=O)NCCN3CCOCC3)CC2=O)cc1 (stereo not given) | -22.5 | 32.6 µM [falling, single point] | – |
| COc1ccccc1N1CCN(C(=O)Cc2c(C(=O)O)[nH]c3ccc(Cl)cc23)CC1 | -32.2 | 0.13 µM [falling, full curve, poor fit] | 0.13 µM [falling, full curve] |
| CC(C)n1cc(CN2CCC(n3nccc3NC(=O)Cc3ccccc3)CC2)cn1 | 19.6 | 0.092 µM [rising, full curve, poor fit] | – |
| CN(C)C(=O)c1ccc(NC(=O)CSc2nnc(-c3cccs3)n2N)cc1 | 5.1 | 0.00461 µM [rising, full curve, poor fit] | – |
| CCN1CCN(C(=O)c2ccc(Cl)c(S(=O)(=O)N(C)c3ccccc3)c2)CC1 | -10.8 | 10.3 µM [falling, partial curve] | – |
| C=Cn1nc(C)c2ccccc2c1=O | – | 6.51 µM [rising, partial curve, poor fit] | – |
| Cc1oc(-c2ccc(Cl)cc2)nc1CS(=O)CC(=O)NCCCN1CCN(Cc2ccccc2)CC1 (stereo not given) | -49.2 | – | 29.1 µM [falling, single point] |
| CN(C)CCN1C(=O)C(=O)/C(=C(/O)c2ccc(S(=O)(=O)N3CCOCC3)cc2)C1c1ccc(F)cc1 (stereo not given) | -11.9 | – | – |
| Cc1cccc(N(C(=O)c2csnn2)C(C(=O)NCc2ccccc2)c2ccc(C)o2)c1 (stereo not given) | 4.05 | – | 0.82 µM [rising, full curve] |
| O=c1c(-c2ccc3c(c2)OCCO3)coc2cc(O)cc(O)c12 | – | – | 0.184 µM [falling, partial curve] |
| Cc1nn(C2CCS(=O)(=O)C2)c(Cl)c1/C=C/C(=O)OCC(=O)Nc1ccc2c(c1)OCO2 (stereo not given) | 16 | – | – |
| O=C(c1cccc(S(=O)(=O)N2CCCCCC2)c1)N1CCN(c2ccccc2F)CC1 | -1.89 | 20.6 µM [falling, single point] | – |
| NC(=O)c1cc([N+](=O)[O-])c(Cl)cc1NCc1ccccn1 | -35.5 | – | 10.3 µM [falling, partial curve] |
| Cc1cc(/C=N\NC(=O)CC(=O)NC2CCCCC2)c(C)n1-c1ccc(Cl)c(Cl)c1 | 8.05 | – | 0.206 µM [rising, full curve, poor fit] |
| COC(=O)CC1Oc2ccccc2N(Cc2ccc(C)cc2)C1=O (stereo not given) | -3.44 | 0.206 µM [falling, full curve, poor fit] | – |
| Cc1cc(O)ccc1N1C(=O)c2cccc3cc([N+](=O)[O-])cc(c23)C1=O | 18.1 | 0.00461 µM [rising, full curve, poor fit] | 0.00517 µM [rising, full curve, poor fit] |
| Cc1cc(=O)oc2c(CN3CCCC3)c(O)ccc12 | -9.72 | – | – |
| COc1ccc(S(=O)(=O)Nc2ccc3c(c2)N(C(C)=O)CCC3)cc1OC | -1.1 | 1.84 µM [falling, partial curve] | – |
| CC(=O)c1ccc(OCCCC(=O)Nc2ccc(C)c(S(=O)(=O)N3CCOCC3)c2)cc1 | -99.7 | 23.1 µM [falling, single point] | 7.31 µM [falling, partial curve] |

Taken from above.
Entry for COc1ccc(S(=O)(=O)Nc2ccc3c(c2)N(C(C)=O)CCC3)cc1OC under cell number change [%]: -1.1
Entry for COc1ccccc1N1CCN(C(=O)Cc2c(C(=O)O)[nH]c3ccc(Cl)cc23)CC1 under AC50 [1]: 0.13 µM [falling, full curve, poor fit]
